Data as given in publication PMC7900238, “A meet-up of two second messengers: the c-di-AMP receptor DarB controls (p)ppGpp synthesis in Bacillus subtilis” (Nature Communications, 2021).
No constants are given. Whether binding was seen depends on the method and setting. In cells and extracts the contact can be indirect. These calls come from enrichment with a bait or labelling near it, and not all partners need be listed. A no says only that the protein was not detected with the bait. Tags and fused reporters may be left off the sequences shown.

Biological target: T1, 6×His-SUMO-DarB bound to the Ni-NTA column (B. subtilis 168) (UniProt O31698)
T1 sequence: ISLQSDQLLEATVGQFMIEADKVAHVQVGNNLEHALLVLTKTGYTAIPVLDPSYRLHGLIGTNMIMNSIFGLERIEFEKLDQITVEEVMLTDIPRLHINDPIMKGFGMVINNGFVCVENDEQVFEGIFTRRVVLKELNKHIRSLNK
Test: affinity purification with mass spectrometry; 6×His-SUMO-DarB bound to a Ni-NTA column; B. subtilis 168 crude extract (from LB) added; washed; eluted with an imidazole gradient; eluates analysed by mass spectrometry; empty vector pET-SUMO as control; only the target purified

**Q.** For “CcpC, endogenous (B. subtilis (endogenous in strain 168))”, which binding is on record?
**A.** The binding was “no binding”.
